According to patent US20080319079A1, “Method for Administering Formoterol Using a Nebulizer” (priority 2006, published 2008):
Read-outs that look alike come from different tables or passages of the source.

What was measured:
[1] = in 2 to 3 ml of water, normal saline, ipotropium bromide solution or budesonide solution
[2] = test system: patients with reversible obstructive respiratory diseases; settings: cited from earlier work; for duration of action (bronchodilation): patients with asthma and related respiratory illnesses, inhalation

COc1ccc(CC(C)NCC(O)c2ccc(O)c(NC=O)c2)cc1 (stereo not shown) [formoterol, N-[2-hydroxy-5-(1-hydroxy-2-((2-(4-methoxyphenyl)-1-methylethyl)-amino)-ethyl)phenyl]formamide]
dissolution of unit dose [1]: dissolves instantly | onset of action ([2]; after inhalation): 1 to 3 min | duration of action (bronchodilation) [2]: ≥ 12 h | duration of action (bronchodilation) ([2]; listed as Formoterol): up to 12 hours
